These results are taken from the supplement of paper PMC10849652.

Amino acid sequences for entries named in this document (tags omitted). A change or cut given only in a name is not applied to a line headed by its entry.
UniProt O60347: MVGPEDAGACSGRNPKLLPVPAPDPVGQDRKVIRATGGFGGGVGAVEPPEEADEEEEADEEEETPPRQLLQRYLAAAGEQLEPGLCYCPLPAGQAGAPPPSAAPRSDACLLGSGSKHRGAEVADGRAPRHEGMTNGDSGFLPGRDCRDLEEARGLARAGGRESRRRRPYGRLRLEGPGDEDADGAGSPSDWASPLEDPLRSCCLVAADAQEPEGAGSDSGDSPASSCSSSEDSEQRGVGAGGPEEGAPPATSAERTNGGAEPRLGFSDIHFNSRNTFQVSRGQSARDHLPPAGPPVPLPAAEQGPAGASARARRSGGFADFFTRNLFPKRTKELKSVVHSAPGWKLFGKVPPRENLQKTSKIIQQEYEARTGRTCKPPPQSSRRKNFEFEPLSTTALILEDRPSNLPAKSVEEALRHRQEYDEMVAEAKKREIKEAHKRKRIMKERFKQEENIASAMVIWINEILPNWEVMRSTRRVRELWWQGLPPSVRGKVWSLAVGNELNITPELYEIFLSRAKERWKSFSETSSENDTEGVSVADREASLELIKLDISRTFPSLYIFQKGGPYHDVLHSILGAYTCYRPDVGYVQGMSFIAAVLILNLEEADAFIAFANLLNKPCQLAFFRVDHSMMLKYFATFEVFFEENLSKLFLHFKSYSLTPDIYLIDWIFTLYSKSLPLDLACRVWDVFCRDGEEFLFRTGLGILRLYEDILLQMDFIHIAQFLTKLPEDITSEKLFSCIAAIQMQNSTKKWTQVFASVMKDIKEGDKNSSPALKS
UniProt Q9UJZ1: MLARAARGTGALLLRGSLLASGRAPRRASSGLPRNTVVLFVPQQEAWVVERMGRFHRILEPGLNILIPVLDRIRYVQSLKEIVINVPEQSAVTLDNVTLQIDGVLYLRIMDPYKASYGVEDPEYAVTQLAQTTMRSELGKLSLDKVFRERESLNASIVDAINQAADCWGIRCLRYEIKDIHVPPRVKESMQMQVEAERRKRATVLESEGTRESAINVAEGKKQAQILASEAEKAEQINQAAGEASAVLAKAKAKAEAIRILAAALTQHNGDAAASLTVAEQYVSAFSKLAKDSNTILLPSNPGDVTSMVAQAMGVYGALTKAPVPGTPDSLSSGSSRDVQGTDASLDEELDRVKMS
UniProt P17542, whole entry, looked up: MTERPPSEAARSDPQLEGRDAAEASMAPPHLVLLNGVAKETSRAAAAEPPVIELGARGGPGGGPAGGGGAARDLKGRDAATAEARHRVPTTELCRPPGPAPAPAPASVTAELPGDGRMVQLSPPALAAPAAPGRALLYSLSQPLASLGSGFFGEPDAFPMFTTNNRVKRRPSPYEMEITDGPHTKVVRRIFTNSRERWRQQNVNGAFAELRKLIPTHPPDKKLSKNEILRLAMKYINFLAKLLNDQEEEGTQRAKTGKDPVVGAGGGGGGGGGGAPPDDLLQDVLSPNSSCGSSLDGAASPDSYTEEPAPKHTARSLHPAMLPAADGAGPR
UniProt Q16514: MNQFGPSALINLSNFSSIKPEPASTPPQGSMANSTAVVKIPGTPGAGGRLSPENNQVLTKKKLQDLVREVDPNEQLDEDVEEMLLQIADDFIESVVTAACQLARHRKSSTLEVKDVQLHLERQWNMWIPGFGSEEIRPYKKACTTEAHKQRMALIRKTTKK
UniProt Q9UBS9: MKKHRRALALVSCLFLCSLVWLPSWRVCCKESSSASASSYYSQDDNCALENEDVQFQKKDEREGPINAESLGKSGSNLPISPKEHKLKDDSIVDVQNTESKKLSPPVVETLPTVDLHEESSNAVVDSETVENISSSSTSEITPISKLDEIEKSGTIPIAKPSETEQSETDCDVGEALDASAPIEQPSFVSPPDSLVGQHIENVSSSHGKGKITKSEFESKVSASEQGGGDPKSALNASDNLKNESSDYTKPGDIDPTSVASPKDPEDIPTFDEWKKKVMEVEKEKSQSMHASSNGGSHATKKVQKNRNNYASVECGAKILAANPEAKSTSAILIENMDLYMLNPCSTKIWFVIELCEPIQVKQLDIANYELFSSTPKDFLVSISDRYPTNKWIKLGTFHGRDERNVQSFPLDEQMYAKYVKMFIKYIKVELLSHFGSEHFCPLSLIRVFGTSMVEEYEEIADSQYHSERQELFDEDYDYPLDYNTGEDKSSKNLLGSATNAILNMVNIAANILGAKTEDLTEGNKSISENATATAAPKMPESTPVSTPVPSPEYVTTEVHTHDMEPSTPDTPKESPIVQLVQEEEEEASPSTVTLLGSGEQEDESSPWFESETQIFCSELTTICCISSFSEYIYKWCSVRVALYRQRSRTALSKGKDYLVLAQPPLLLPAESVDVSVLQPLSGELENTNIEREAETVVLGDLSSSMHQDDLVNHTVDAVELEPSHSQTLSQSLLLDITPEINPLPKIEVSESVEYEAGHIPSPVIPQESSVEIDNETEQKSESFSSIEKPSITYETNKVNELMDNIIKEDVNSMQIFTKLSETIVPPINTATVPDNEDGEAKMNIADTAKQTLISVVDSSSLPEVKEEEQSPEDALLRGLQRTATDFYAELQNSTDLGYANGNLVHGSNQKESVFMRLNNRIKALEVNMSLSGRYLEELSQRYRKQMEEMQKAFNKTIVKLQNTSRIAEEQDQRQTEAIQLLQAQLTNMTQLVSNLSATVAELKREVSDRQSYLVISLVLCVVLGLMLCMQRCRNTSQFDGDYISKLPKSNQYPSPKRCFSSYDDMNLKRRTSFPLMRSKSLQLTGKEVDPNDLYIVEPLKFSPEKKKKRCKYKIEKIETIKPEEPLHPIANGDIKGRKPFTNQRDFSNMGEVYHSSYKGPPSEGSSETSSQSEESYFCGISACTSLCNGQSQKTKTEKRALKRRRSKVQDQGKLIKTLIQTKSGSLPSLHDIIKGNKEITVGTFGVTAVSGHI
UniProt Q7Z422: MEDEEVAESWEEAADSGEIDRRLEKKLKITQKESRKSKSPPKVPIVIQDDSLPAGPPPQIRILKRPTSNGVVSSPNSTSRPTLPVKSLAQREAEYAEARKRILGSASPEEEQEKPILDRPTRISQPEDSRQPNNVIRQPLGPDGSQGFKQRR
UniProt P37837: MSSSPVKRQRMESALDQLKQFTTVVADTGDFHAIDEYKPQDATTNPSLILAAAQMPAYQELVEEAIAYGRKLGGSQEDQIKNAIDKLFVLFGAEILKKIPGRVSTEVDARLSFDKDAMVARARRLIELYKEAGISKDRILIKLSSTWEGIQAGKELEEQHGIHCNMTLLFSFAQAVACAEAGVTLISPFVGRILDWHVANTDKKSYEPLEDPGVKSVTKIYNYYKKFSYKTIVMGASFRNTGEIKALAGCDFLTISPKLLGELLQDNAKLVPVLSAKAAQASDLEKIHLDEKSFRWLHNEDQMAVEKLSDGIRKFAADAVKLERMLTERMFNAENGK
UniProt Q6P1N9: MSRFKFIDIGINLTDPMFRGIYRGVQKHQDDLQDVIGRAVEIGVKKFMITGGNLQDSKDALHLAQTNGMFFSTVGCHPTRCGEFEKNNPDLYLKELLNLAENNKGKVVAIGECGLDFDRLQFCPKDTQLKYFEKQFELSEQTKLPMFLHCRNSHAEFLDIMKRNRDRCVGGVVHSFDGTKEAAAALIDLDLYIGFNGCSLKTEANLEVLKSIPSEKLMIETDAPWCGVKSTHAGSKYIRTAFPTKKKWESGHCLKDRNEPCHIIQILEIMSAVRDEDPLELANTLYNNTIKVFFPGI
UniProt Q15545, whole entry, looked up: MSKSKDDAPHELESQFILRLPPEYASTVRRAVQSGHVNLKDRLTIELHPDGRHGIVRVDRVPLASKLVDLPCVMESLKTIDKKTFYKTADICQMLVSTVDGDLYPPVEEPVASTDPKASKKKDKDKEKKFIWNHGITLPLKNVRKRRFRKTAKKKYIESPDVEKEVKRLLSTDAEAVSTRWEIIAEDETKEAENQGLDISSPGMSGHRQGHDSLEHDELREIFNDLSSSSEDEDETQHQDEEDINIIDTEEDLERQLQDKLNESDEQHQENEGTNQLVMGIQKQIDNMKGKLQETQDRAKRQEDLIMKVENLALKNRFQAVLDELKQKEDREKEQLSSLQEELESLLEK
UniProt O43760: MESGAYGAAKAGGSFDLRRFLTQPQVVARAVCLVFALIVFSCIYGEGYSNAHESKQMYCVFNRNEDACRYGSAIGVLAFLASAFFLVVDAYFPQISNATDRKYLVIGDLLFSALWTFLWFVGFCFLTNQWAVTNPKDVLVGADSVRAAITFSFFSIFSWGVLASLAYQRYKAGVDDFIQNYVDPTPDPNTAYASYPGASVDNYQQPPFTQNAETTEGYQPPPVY
UniProt Q8WXE9: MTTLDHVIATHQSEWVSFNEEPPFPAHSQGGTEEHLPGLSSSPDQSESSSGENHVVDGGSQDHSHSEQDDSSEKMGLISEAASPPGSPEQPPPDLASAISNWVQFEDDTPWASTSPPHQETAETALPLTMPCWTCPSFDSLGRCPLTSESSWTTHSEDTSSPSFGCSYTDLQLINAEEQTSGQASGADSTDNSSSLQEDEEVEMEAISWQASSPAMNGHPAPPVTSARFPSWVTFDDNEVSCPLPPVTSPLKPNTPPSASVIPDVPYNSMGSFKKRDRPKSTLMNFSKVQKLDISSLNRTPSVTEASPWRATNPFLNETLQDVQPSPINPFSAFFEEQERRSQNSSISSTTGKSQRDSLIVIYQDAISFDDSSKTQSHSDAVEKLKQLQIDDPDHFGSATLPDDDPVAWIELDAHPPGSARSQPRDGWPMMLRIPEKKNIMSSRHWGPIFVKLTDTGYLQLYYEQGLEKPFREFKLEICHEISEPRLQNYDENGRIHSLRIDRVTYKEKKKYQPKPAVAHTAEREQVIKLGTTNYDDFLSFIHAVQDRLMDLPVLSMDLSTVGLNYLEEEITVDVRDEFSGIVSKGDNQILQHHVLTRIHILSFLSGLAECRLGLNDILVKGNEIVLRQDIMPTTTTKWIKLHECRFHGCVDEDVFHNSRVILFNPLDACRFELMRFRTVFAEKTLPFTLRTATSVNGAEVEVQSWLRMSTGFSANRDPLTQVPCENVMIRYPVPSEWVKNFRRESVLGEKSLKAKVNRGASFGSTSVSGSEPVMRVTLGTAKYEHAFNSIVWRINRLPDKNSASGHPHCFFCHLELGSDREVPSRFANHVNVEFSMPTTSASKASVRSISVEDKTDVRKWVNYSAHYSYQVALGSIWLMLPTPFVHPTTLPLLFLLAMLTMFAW
UniProt Q9UMZ2: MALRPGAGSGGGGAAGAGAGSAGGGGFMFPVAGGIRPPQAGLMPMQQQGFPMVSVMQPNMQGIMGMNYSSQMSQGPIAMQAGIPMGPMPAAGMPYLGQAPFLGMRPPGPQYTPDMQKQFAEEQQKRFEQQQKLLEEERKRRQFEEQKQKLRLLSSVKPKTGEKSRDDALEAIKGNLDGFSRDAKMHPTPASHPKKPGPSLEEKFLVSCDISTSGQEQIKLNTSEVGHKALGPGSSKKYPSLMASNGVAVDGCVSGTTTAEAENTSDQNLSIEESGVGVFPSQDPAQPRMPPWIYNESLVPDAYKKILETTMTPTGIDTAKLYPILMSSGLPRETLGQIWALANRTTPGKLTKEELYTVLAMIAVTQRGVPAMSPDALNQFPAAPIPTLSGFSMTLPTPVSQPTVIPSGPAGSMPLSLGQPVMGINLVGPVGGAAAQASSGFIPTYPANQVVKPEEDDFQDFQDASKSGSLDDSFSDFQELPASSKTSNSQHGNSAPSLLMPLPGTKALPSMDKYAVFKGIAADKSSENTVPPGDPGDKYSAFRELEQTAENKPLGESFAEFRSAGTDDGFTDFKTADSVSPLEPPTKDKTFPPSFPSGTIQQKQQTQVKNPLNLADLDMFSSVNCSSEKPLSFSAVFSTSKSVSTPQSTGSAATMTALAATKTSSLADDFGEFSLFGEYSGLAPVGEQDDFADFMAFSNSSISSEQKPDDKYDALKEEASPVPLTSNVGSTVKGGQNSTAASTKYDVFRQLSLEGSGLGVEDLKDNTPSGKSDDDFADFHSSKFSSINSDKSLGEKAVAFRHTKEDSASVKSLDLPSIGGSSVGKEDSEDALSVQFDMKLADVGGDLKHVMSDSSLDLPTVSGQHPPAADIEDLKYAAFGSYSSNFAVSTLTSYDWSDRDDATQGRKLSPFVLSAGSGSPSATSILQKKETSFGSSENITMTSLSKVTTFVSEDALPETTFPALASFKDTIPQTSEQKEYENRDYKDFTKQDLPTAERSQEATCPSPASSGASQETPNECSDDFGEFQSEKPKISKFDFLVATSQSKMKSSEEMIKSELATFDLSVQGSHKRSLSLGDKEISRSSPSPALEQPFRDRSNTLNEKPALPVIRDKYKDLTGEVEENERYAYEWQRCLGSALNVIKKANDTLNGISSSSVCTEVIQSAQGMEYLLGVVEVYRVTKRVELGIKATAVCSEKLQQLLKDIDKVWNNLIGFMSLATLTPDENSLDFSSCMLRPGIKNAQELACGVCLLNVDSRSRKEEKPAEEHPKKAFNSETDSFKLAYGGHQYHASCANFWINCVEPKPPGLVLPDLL

Some of the results follow.

Compound in the test: c1cn2cc(-c3ccc4cn[nH]c4c3)nc(Nc3ccc(N4CCOCC4)cc3)c2n1 [entospletinib]
The test can be described thus: log2 fold change, soluble protein after heating vs DMSO (PISA); higher = thermal stabilisation; K562 cells, 10 uM, 30 min; active = over 0.2 and 3.5 SD of the protein, either way, in both replicates (recomputed). The procedure, abridged: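 Soluble protein was quantified by TMTpro 16plex LC-MS/MS after channel sums were equalised. It was obtained as the supernatant after 21,000xg for 90 min from pooled aliquots of K562 cells (2×10^6 cells/mL, 10 μM compound, 30 min) heated for 3 min across 48°C-58°C and extracted in PBS with 0.5% NP-40 at 4°C. Thermal stability values are relative to control samples and come from duplicates. They are given as log2 fold changes.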
Take STX6 (UniProt O43752): the log2 fold change was inactive: -0.005.
Under TBC1D12 (UniProt O60347) stands inactive: -0.009; under TACC3 (UniProt Q9Y6A5), inactive: -0.008; under SUPV3L1 (UniProt Q8IYB8), inactive: 0.01.
To TACC1 isoform 2 (UniProt O75410) belongs inactive: -0.014.
To SULT1A3 isoform 3 (UniProt P0DMM9) belongs inactive: 0.041; to STOML2 (UniProt Q9UJZ1), inactive: -0.035.
TAL1 (UniProt P17542): the log2 fold change was inactive: -0.029.
Under TATDN3 isoform 3 (UniProt Q17R31) stands inactive: -0.006; under TAF12 (UniProt Q16514), inactive: -0.005.
To TAF2 (UniProt Q6P1X5) belongs inactive: 0.072; to SUCO (UniProt Q9UBS9), inactive: 0.06; to SYS1 (UniProt Q8N2H4), inactive: -0.209.
With SZRD1 (UniProt Q7Z422), the log2 fold change was inactive: 0.011.
Under SUMF2 (UniProt Q8NBJ7) stands inactive: 0.036; under SUPT6H (UniProt Q7KZ85), inactive: 0.068; under SUSD1 isoform 2 (UniProt Q6UWL2), inactive: -0.001.
TAGLN (UniProt Q01995): the log2 fold change is inactive: 0.018.
Under TALDO1 (UniProt P37837) stands inactive: -0.019; under TATDN1 (UniProt Q6P1N9), inactive: -0.014; under TAF7 (UniProt Q15545), inactive: -0.013.
Under SUPT4H1 (UniProt P63272) stands inactive: 0.082; under SYNGR2 (UniProt O43760), inactive: 0.018; under SYNCRIP isoform 3 (UniProt O60506), inactive: 0.176.
With STMN1 (UniProt P16949), the log2 fold change is inactive: -0.036.
Under STX3 (UniProt Q13277) stands inactive: -0.036; under STON2 isoform 3 (UniProt Q8WXE9), inactive: -0.073; under STX5 (UniProt Q13190), inactive: 0.034.
Under STX8 (UniProt Q9UNK0) stands inactive: -0.008; under SYNRG (UniProt Q9UMZ2), inactive: -0.008.
